Measurements: PubChem BioAssay AID1347075 (National Center for Advancing Translational Sciences (NCATS), 2019)
Out of some 400,000 compounds screened, about 5,500 (1.4%) were called active. The inconclusive results got no clear call from the source; some entries with a clear call stand among them for comparison. Calls come from the whole dose curve; as a rule, active = well fitted cell-killing curve with a large enough effect; inconclusive = small, poorly fitted or top-dose-only effect, or effect the other way; inactive = flat fitted curve, though single readings scatter. A potency beside an inconclusive call is a rough fit, not a confirmed value.

Experiment: qHTS assay for MDR1-selective chemotherapeutics: Primary screen using the parental adenocarcinoma cell KB-3-1; note: nearly all actives have a fitted effect of over 60% in size
Conditions: KB-3-1 viability, CellTiter-Glo ATP luminescence, 72 h; activity change, negative = cytotoxic: at 46.1 µM (top of the series)
Method in brief: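 Luminescent ATP read-out (CellTiter-Glo) measures survival of drug-naive KB-3-1 cells after 72 h compound exposure at 37 °C. Titration series was screened from lowest to highest concentration, with DMSO vehicle plates as background controls.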
% is set by controls: 0 for no effect and ±100 for the full control effect; potency is the fitted concentration of half-maximal effect.

Row | Compound | Potency | activity change, negative = cytotoxic
1 | OC1(c2ccc(Cl)cc2)CN(c2ccccc2)C2=[N+]1CCS2 (stereo not drawn) | inactive | –
2 | O=C(Nc1ccccc1N1CCOCC1)c1cc(-c2ccco2)nc2ccccc12 | inconclusive: 29.1 µM [cytotoxic, single point] | –
3 | CN1C(=S)SC(/[N+]([O-])=C/c2cccnc2)C1(C)C (stereo not drawn) | inconclusive: 12.6 µM [rising, partial curve, poor fit] | –
4 | COC(=O)c1ccc(Cn2nnc3c(=O)[nH]c(C4CCCN(S(=O)(=O)c5ccccc5)C4)nc32)cc1 (stereo not drawn) | inconclusive: 14.6 µM [rising, partial curve, poor fit] | –
5 | Cn1cc(C(=O)NCCc2ccc(Cl)cc2)c(=O)c2cc(S(=O)(=O)N3CCCCC3)ccc21 | inconclusive: 13 µM [rising, partial curve] | –
6 | CN1/C(=C/c2cc[n+](C)c3ccccc23)C=Cc2ccccc21 | active: 6.51 µM | –
7 | COc1ccc(-c2ccc(CN3C(C)C(=O)N(Cc4cn(CC5CCCCC5)nn4)CCS3(=O)=O)cc2)cc1 (stereo not drawn) | inconclusive: 29.1 µM [cytotoxic, single point] | –
8 | Cn1c(C(=O)NCCOc2ccccc2Cl)cc(=O)n(C)c1=O | inconclusive: 29.1 µM [rising, single point] | –
9 | COc1ccc(Nc2nc(-c3ccccc3)nc3ccccc23)cc1 | inconclusive: 20.6 µM [cytotoxic, single point] | –
10 | CCN(CC)c1ccc(/C=C(/C#N)c2nc3ccccc3[nH]2)c(OC(C)C)c1 | inconclusive: 20.6 µM [cytotoxic, single point] | –
11 | CCCN(C(=O)COC(=O)CSc1ccc([N+](=O)[O-])cc1)C1CCS(=O)(=O)C1 (stereo not drawn) | inconclusive: 20.6 µM [rising, single point] | –
12 | O=C(c1cc(-c2ccccc2)on1)N1CCN(C(=O)c2ccco2)CC1 | inactive | –
13 | CCOP(=O)(OCC)/C(=N/OC(=O)c1ccc(OC)cc1)C(N)=O | – | inconclusive: -12.8%
14 | O=C(NC(=S)Nc1nc2c(s1)CCCC2)c1ccc(C(=O)c2ccccc2)cc1 | active: 23.1 µM | –
15 | O=C(Nc1ccccc1C(=O)Nc1ccccc1C(=O)O)c1ccccc1 | inconclusive: 20.6 µM [cytotoxic, single point] | –
16 | O=C(/C=C/c1ccccc1)Nc1cccnc1Oc1ccccc1F | inconclusive: 6.51 µM [rising, partial curve] | –
17 | Cc1ccc(C(=O)N2CCCC(CCC(=O)N3CCN(c4ccccn4)CC3)C2)cc1 (stereo not drawn) | inactive | –
18 | COc1ccc(-c2cnc3c(NC(C)=O)cc(-c4ccsc4)cn23)cc1OC | inactive | –
19 | O=C(Nc1ccc2c(c1)OCO2)C1Cc2c(-c3ccc4c(c3)OCO4)ccnc2O1 (stereo not drawn) | inconclusive: 20.6 µM [cytotoxic, single point] | –
20 | CCOc1ccccc1NC(=O)c1ccc2c(Cl)c3c(nc2c1)CCCC3 | inactive | –
21 | Nc1ccc2cc3[nH]c4cc(N)ccc4c3nc2c1 | inconclusive: 29.1 µM [cytotoxic, single point] | –
22 | CCOc1ccc(/C=C/C(=O)C(C(N)=O)=C2SCCS2)cc1 | inconclusive: 14.6 µM [cytotoxic, partial curve] | –

Row | Compound | Potency | activity change, negative = cytotoxic
23 | CC[n+]1c(/C=C/c2c[nH]c3ccccc23)ccc2cc(C)ccc21 | active: 9.2 µM | –
24 | Cc1cc(NC(=O)C(C)(C)Oc2ccc(Cl)cc2)cc(-c2nc3ncccc3o2)c1O | inactive | –
25 | O=C(Nc1ccc2ccccc2c1)c1ccccc1O | inconclusive: 29.1 µM [cytotoxic, single point] | –
26 | CCOC(=O)N=Nc1c2ccccc2c2nc3no[nH]c3nc12 | active: 1.46 µM | –
27 | CC1=CCC2COC(c3ccc[n+](Cc4ccccc4)c3)C1C2 (stereo not drawn) | inconclusive: 29.1 µM [cytotoxic, single point] | –
28 | CCCCCN1C(C(=O)c2ccccc2)=C(NC(C)=O)c2ccccc2S1(=O)=O | inconclusive: 29.1 µM [cytotoxic, single point] | –
29 | CC1(C)C2CCC1(CS(=O)(=O)NCc1ccc(C(F)(F)F)cc1)C(=O)C2 (stereo not drawn) | inactive | –
30 | CC(=NNC(=O)c1ccncc1)c1ccc(O)cc1O | inconclusive: 8.2 µM [cytotoxic, partial curve] | –
31 | CC(C)C(=O)N1CCN(c2ccc(NC(=O)COc3ccccc3[N+](=O)[O-])cc2)CC1 | inconclusive: 16.4 µM [cytotoxic, single point] | –
32 | CCCOc1ccc(OCC(=O)c2[nH]c(C)c(C(C)=O)c2C)cc1 | inconclusive: 23.1 µM [cytotoxic, single point] | –
33 | O=C(NC1CCN(S(=O)(=O)c2ccccc2F)CC1)c1cccnc1 | inactive | –
34 | Cc1cccc(CNC(=O)c2sc3ncnc(N(C)C4CCCCC4)c3c2C)c1 | inactive | –
35 | OC(CNCCc1ccc(C(F)(F)F)cc1)COc1ccc2ccccc2c1 (stereo not drawn) | inconclusive: 18.4 µM [cytotoxic, single point] | –
36 | Cc1nc(C)c(-c2csc(NCCc3ccccc3)n2)s1 | inconclusive: 29.1 µM [cytotoxic, single point] | –
37 | COc1ccc(OC)c(NC(=O)Cc2c(C)n(C(=O)c3ccc(Cl)cc3)c3ccc(OC)cc23)c1 | inconclusive: 18.4 µM [cytotoxic, single point] | –
38 | CCCCN1C(=O)C(CC(=O)NC(c2ccccc2)c2ccccc2)CC(C(=O)N(CC)CC)=C1C (stereo not drawn) | inactive | –
39 | C#CCN1C(=O)C(O)(CC(=O)c2ccc(OC)c(OC)c2)c2ccccc21 (stereo not drawn) | inconclusive: 20.6 µM [cytotoxic, partial curve, poor fit] | –
40 | CCCCCCCCCC[n+]1ccc(/C=C/c2c(C)[nH]c3ccccc23)c2ccccc21 | active: 5.8 µM | –
41 | Cc1ccccc1-c1ccc(CN2C(C)C(=O)N(Cc3cn(Cc4ccco4)nn3)CCS2(=O)=O)cc1 (stereo not drawn) | inconclusive: 29.1 µM [cytotoxic, partial curve, poor fit] | –
42 | CCN1CCOC(=O)C1CC(=O)Nc1ccc(C(C)=O)cc1 (stereo not drawn) | – | inconclusive: 11.7%
43 | C[C@@H]1CN([C@H](C)CO)C(=O)c2cc(Br)cnc2O[C@@H]1CN(C)Cc1ccc(-c2ccccc2)cc1 | inconclusive: 6.51 µM [cytotoxic, partial curve] | –

Record cards, as listed above.
CCN(CC)c1ccc(/C=C(/C#N)c2nc3ccccc3[nH]2)c(OC(C)C)c1 is listed with Potency: inconclusive: 20.6 µM [cytotoxic, single point]
O=C(/C=C/c1ccccc1)Nc1cccnc1Oc1ccccc1F is listed with Potency: inconclusive: 6.51 µM [rising, partial curve]
